Test results reported in paper PMC11742450, “Engineering a membrane protein chaperone to ameliorate the proteotoxicity of mutant huntingtin” (Nature Communications, 2025).
Residue numbers refer to the chain shown, from its start. Results are given in words; binding and its absence hold for the method and conditions named. For part of these data: Binding can be weak; no strength is given. Where a sequence is shown, tags or fusion partners need not be part of it.

Assays:
[1] = molecular target: T1, His6-hsPEX19-FV (M255F/Q259V) (human) (UniProt P40855); test: condition: 250 nM (highest concentration of the series); BLI; His-hsPEX19-FV immobilised on a Ni-NTA biosensor; GST-Httex1-51Q proteins 250 nM to 15.6 nM; 30 °C; 20 mM HEPES (pH 7.5), 150 mM KoAc; association 300 s, dissociation 600 s; 1:1 binding model; both purified
T1 sequence: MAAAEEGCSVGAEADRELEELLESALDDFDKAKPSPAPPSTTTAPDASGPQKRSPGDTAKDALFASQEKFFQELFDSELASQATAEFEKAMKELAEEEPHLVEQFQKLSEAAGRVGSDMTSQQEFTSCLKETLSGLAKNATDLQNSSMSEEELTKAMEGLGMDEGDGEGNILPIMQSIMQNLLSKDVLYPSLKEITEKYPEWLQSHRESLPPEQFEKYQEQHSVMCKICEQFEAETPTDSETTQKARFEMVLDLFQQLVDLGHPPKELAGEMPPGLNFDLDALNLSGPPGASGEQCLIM

[2] = molecular target: T1, His6-hsPEX19-FV (M255F/Q259V) (human); test: BLI; His-hsPEX19-FV immobilised on a Ni-NTA biosensor; GST-Httex1-51Q proteins 250 nM to 15.6 nM; 30 °C; 20 mM HEPES (pH 7.5), 150 mM KoAc; association 300 s, dissociation 600 s; 1:1 binding model; both purified
[3] = molecular target: T2, His6-hsPEX19-FI^Bpa (human) (UniProt P40855); test: cross-linking; Bpa photo-cross-linking, Bpa in hsPEX19 (F255 or M179); 3 μM hsPEX19^Bpa with equimolar Httex1-51Q-WT or -ΔN, 3 h at 30 °C in TEV reaction buffer with AcTEV protease; UV on dry ice 10 min; Western blot with PEX19 and S-tag antibodies; both purified
T2 sequence (chain, p-benzoyl-L-phenylalanine (Bpa) in place of residue F255): T1 sequence with V259I

[4] = molecular target: T3, His6-hsPEX19-FV^Bpa (human) (UniProt P40855); test: as above
T3 sequence (chain, p-benzoyl-L-phenylalanine (Bpa) in place of residue F255): T1 sequence

GST-Httex1-51Q-ΔN (domain or fragment)
binding [1]: no binding

GST-Httex1-51Q-WT (domain or fragment)
binding [2]: binds

Httex1-51Q-WT (after TEV cleavage of GST) (domain or fragment)
binding [3]: binds | binding [4]: binds

Httex1-51Q-ΔN (after TEV cleavage of GST) (domain or fragment)
binding [3]: no binding (tested: 3 μM each) | binding [4]: no binding (tested: 3 μM each)
